Patent US20130236458A1 (AbbVie / Abbott, published 2013)
These are yes or no findings as the source states them, for the method shown. Some results given as binding are weak or reduced against the parent protein; the word gives no strength.

By UniProt entry, the sequences of proteins in these tests, tags left out. Residues count along the entry.
UniProt P35225, residues 35-146: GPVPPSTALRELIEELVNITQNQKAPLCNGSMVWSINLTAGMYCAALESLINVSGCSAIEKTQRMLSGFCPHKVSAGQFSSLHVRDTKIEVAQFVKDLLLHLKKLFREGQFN

T1: Recombinant Human IL-17 (human, UniProt Q16552 20-155, limits assumed)
T1 sequence (looked up): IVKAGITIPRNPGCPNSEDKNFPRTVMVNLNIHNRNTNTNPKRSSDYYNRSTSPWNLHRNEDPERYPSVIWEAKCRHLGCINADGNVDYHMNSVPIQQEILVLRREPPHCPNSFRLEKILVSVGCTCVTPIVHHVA


How the values were obtained:
Recombinant Human IL-13 = Recombinant Human IL-13 (human, UniProt P35225 35-146, limits assumed); test: SPR (Biacore)
Method: (§1) The BIACORE assay (Biacore, Inc, Piscataway, N.J.) determined the affinity of antibodies or DVD-Ig with kinetic measurements of on-rate and off-rate constants. Binding of antibodies or DVD-Ig proteins to a target antigen (for example, a purified recombinant target antigen) was determined by surface plasmon resonance-based measurements with a Biacore®1000 or 3000 instrument (Biacore® AB, Uppsala, Sweden) using running HBS-EP (10 mM HEPES [pH 7.4], 150 mM NaCl, 3 mM EDTA, and 0.005% surfactant P20) at 25° C. All chemicals were obtained from Biacore® AB (Uppsala, Sweden) or otherwise from a different source as described in the text. For example, approximately 5000 RU of goat anti-mouse IgG, (Fcγ), fragment specific polyclonal antibody (Pierce Biotechnology Inc, Rockford, Ill.) diluted in 10 mM sodium acetate (pH 4.5) was directly immobilized across a CM5 research grade biosensor chip using a standard amine coupling kit according to manufacturer's instructions and procedures at 25 μg/ml. Unreacted moieties on the biosensor surface were blocked with ethanolamine. Modified carboxymethyl dextran surface in flowcell 2 and 4 was used as a reaction surface. Unmodified carboxymethyl dextran without goat anti-mouse IgG in flow cell 1 and 3 was used as the reference surface. For kinetic analysis, rate equations derived from the 1:1 Langmuir binding model were fitted simultaneously to association and dissociation phases of all eight injections (using global fit analysis) with the use of Biaevaluation 4.0.1 software. Purified antibodies or DVD-Ig proteins were diluted in HEPES-buffered saline for capture across goat anti-mouse IgG specific reaction surfaces. Antibodies or DVD-Ig proteins to be captured as a ligand (25 μg/ml) were injected over reaction matrices at a flow rate of 5 μl/minute. The association and dissociation rate constants, kₒₙ (M⁻¹s⁻¹) and koff (s⁻¹) were determined under a continuous flow rate of 25 μl/minute. Rate constants were derived by making kinetic binding measurements at different antigen concentrations ranging from 10-200 nM. The equilibrium dissociation constant (M) of the reaction between antibodies or DVD-Ig proteins and the target antigen was then calculated from the kinetic rate constants by the following formula: KD=koff/kₒₙ. Binding was recorded as a function of time and kinetic rate constants were calculated.

Recombinant Human IL-17 = biological target: T1, Recombinant Human IL-17; test: SPR (Biacore)
Method: as §1

Binder	binding (Recombinant Human IL-13)	binding (Recombinant Human IL-17)
DVD2185 (bispecific antibody, DVD-Ig; also called DVD2185H; DVD2185L) VH: EVQLVQSGAEVKKPGSSVKVSCKASGYTFTDYEIHWVRQAPGQGLEWMGVNDPESGGTFYNQKFDGRVTLTADESTSTAYMELSSLRSEDTAVYYCTRYSKWDSFDGMDYWGQGTTVTVSSASTKGPEVQLVQSGAEVKKPGASVKVSCKASGYTFTSYWMHWVRQAPGQGLEWIGNINPKGGSNIYNEKFQGRVTMTRDTSISTAYMELSRLRSDDTAVYYCARLDYFGDSFDLWGQGTTVTVSS VL: DIQMTQSPSSLSASVGDRVTITCRASSGIISYIDWFQQKPGKAPKRLIYATFDLASGVPSRFSGSGSGTDYTLTISSLQPEDFATYYCRQVGSYPETFGQGTKLEIKRTVAAPDIQMTQSPSSLSASVGDRVTITCRASQGIRNYLNWYQQKPGKAPKLLIYYASNLEVGVPSRFSGSGSGTDYTLTISSLQPEDFATYYCQQDNRFPYTFGGGTKVEIKR	binds	binds
DVD2187 (bispecific antibody, DVD-Ig; also called DVD2187H; DVD2187L) VH: EVQLVQSGAEVKKPGSSVKVSCKASGYTFTDYEIHWVRQAPGQGLEWMGVNDPESGGTFYNQKFDGRVTLTADESTSTAYMELSSLRSEDTAVYYCTRYSKWDSFDGMDYWGQGTTVTVSSASTKGPEVQLVQSGAEVKKPGASVKVSCKASGYTFTSYWMHWVRQAPGQGLEWIGNINPKGGSNIYNEKFQGRVTMTRDTSISTAYMELSRLRSDDTAVYYCARLDYFGDSFDLWGQGTTVTVSS VL: DIQMTQSPSSLSASVGDRVTITCRASSGIISYIDWFQQKPGKAPKRLIYATFDLASGVPSRFSGSGSGTDYTLTISSLQPEDFATYYCRQVGSYPETFGQGTKLEIKRTVAAPSVFIFPPDIQMTQSPSSLSASVGDRVTITCRASQGIRNYLNWYQQKPGKAPKLLIYYASNLEVGVPSRFSGSGSGTDYTLTISSLQPEDFATYYCQQDNRFPYTFGGGTKVEIKR	binds	binds
DVD2189 (bispecific antibody, DVD-Ig; also called DVD2189H; DVD2189L) VH: EVQLVQSGAEVKKPGSSVKVSCKASGYTFTDYEIHWVRQAPGQGLEWMGVNDPESGGTFYNQKFDGRVTLTADESTSTAYMELSSLRSEDTAVYYCTRYSKWDSFDGMDYWGQGTTVTVSSASTKGPSVFPLAPEVQLVQSGAEVKKPGASVKVSCKASGYTFTSYWMHWVRQAPGQGLEWIGNINPKGGSNIYNEKFQGRVTMTRDTSISTAYMELSRLRSDDTAVYYCARLDYFGDSFDLWGQGTTVTVSS VL: DIQMTQSPSSLSASVGDRVTITCRASSGIISYIDWFQQKPGKAPKRLIYATFDLASGVPSRFSGSGSGTDYTLTISSLQPEDFATYYCRQVGSYPETFGQGTKLEIKRTVAAPDIQMTQSPSSLSASVGDRVTITCRASQGIRNYLNWYQQKPGKAPKLLIYYASNLEVGVPSRFSGSGSGTDYTLTISSLQPEDFATYYCQQDNRFPYTFGGGTKVEIKR	binds	binds
DVD2196 (bispecific antibody, DVD-Ig; also called DVD2196H; DVD2196L) VH: EVQLVQSGAEVKKPGASVKVSCKASGYTFTSYWMHWVRQAPGQGLEWIGNINPKGGSNIYNEKFQGRVTMTRDTSISTAYMELSRLRSDDTAVYYCARLDYFGDSFDLWGQGTTVTVSSASTKGPEVQLVQSGAEVKKPGESVKISCKASGGSFRSYGISWVRQAPGQGLEWMGGITHFFGITDYAQKFQGRVTITADESTTTAYMELSGLTSDDTAVYYCAREPNDFWNGYYDTHDFDSWGQGTTVTVSS VL: DIQMTQSPSSLSASVGDRVTITCRASQGIRNYLNWYQQKPGKAPKLLIYYASNLEVGVPSRFSGSGSGTDYTLTISSLQPEDFATYYCQQDNRFPYTFGGGTKVEIKRTVAAPEIVLTQSPDFQSVTPKEKVTITCRASQNIGSELHWYQQKPDQSPKLLIKYASHSISGVPSRFSGSGSGTDFTLTINGLEAEDAATYYCHQSDTLPHTFGQGTKVDIKR	binds	binds
DVD2197 (bispecific antibody, DVD-Ig; also called DVD2197H; DVD2197L) VH: EVQLVQSGAEVKKPGESVKISCKASGGSFRSYGISWVRQAPGQGLEWMGGITHFFGITDYAQKFQGRVTITADESTTTAYMELSGLTSDDTAVYYCAREPNDFWNGYYDTHDFDSWGQGTTVTVSSASTKGPEVQLVQSGAEVKKPGASVKVSCKASGYTFTSYWMHWVRQAPGQGLEWIGNINPKGGSNIYNEKFQGRVTMTRDTSISTAYMELSRLRSDDTAVYYCARLDYFGDSFDLWGQGTTVTVSS VL: EIVLTQSPDFQSVTPKEKVTITCRASQNIGSELHWYQQKPDQSPKLLIKYASHSISGVPSRFSGSGSGTDFTLTINGLEAEDAATYYCHQSDTLPHTFGQGTKVDIKRTVAAPDIQMTQSPSSLSASVGDRVTITCRASQGIRNYLNWYQQKPGKAPKLLIYYASNLEVGVPSRFSGSGSGTDYTLTISSLQPEDFATYYCQQDNRFPYTFGGGTKVEIKR	binds	binds
DVD2199 (bispecific antibody, DVD-Ig; also called DVD2199H; DVD2199L) VH: EVQLVQSGAEVKKPGESVKISCKASGGSFRSYGISWVRQAPGQGLEWMGGITHFFGITDYAQKFQGRVTITADESTTTAYMELSGLTSDDTAVYYCAREPNDFWNGYYDTHDFDSWGQGTTVTVSSASTKGPEVQLVQSGAEVKKPGASVKVSCKASGYTFTSYWMHWVRQAPGQGLEWIGNINPKGGSNIYNEKFQGRVTMTRDTSISTAYMELSRLRSDDTAVYYCARLDYFGDSFDLWGQGTTVTVSS VL: EIVLTQSPDFQSVTPKEKVTITCRASQNIGSELHWYQQKPDQSPKLLIKYASHSISGVPSRFSGSGSGTDFTLTINGLEAEDAATYYCHQSDTLPHTFGQGTKVDIKRTVAAPSVFIFPPDIQMTQSPSSLSASVGDRVTITCRASQGIRNYLNWYQQKPGKAPKLLIYYASNLEVGVPSRFSGSGSGTDYTLTISSLQPEDFATYYCQQDNRFPYTFGGGTKVEIKR	binds	binds
DVD2200 (bispecific antibody, DVD-Ig; also called DVD2200H; DVD2200L) VH: EVQLVQSGAEVKKPGASVKVSCKASGYTFTSYWMHWVRQAPGQGLEWIGNINPKGGSNIYNEKFQGRVTMTRDTSISTAYMELSRLRSDDTAVYYCARLDYFGDSFDLWGQGTTVTVSSASTKGPSVFPLAPEVQLVQSGAEVKKPGESVKISCKASGGSFRSYGISWVRQAPGQGLEWMGGITHFFGITDYAQKFQGRVTITADESTTTAYMELSGLTSDDTAVYYCAREPNDFWNGYYDTHDFDSWGQGTTVTVSS VL: DIQMTQSPSSLSASVGDRVTITCRASQGIRNYLNWYQQKPGKAPKLLIYYASNLEVGVPSRFSGSGSGTDYTLTISSLQPEDFATYYCQQDNRFPYTFGGGTKVEIKRTVAAPEIVLTQSPDFQSVTPKEKVTITCRASQNIGSELHWYQQKPDQSPKLLIKYASHSISGVPSRFSGSGSGTDFTLTINGLEAEDAATYYCHQSDTLPHTFGQGTKVDIKR	binds	binds
DVD2201 (bispecific antibody, DVD-Ig; also called DVD2201H; DVD2201L) VH: EVQLVQSGAEVKKPGESVKISCKASGGSFRSYGISWVRQAPGQGLEWMGGITHFFGITDYAQKFQGRVTITADESTTTAYMELSGLTSDDTAVYYCAREPNDFWNGYYDTHDFDSWGQGTTVTVSSASTKGPSVFPLAPEVQLVQSGAEVKKPGASVKVSCKASGYTFTSYWMHWVRQAPGQGLEWIGNINPKGGSNIYNEKFQGRVTMTRDTSISTAYMELSRLRSDDTAVYYCARLDYFGDSFDLWGQGTTVTVSS VL: EIVLTQSPDFQSVTPKEKVTITCRASQNIGSELHWYQQKPDQSPKLLIKYASHSISGVPSRFSGSGSGTDFTLTINGLEAEDAATYYCHQSDTLPHTFGQGTKVDIKRTVAAPDIQMTQSPSSLSASVGDRVTITCRASQGIRNYLNWYQQKPGKAPKLLIYYASNLEVGVPSRFSGSGSGTDYTLTISSLQPEDFATYYCQQDNRFPYTFGGGTKVEIKR	binds	binds
